According to PubChem BioAssay AID504834 (National Center for Advancing Translational Sciences (NCATS), 2011):
The campaign covered roughly 320,000 compounds. About 22,000 (6.9%) were called active. The shares of active, inactive and inconclusive entries below differ from those in the screen. The call rests on the fitted dose curve; in most records, active means well fitted inhibition curve with a large enough effect; inconclusive means small, poorly fitted or top-dose-only effect, or another doubt; inactive means no such curve, though single readings can be large or run the other way. A potency beside an inconclusive call is a rough fit, not a confirmed value.

Assay: Primary qHTS for delayed death inhibitors of the malarial parasite plastid, 96 hour incubation
Conditions: P. falciparum luciferase reporter growth; series mostly up to 28.7 µM; activity change, negative = inhibition: at the top concentration
Outline: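 Parasite growth measured via integrated firefly luciferase reporter in P. falciparum. Infected erythrocytes at 2% hematocrit, 0.05% parasitemia final were treated 96 hours at 37 C under 5% CO2, and luminescence was read.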
On the % scale 0 is the no-effect control and ±100 the full control effect; potency means the concentration at half of the fitted maximal effect.

Row | SMILES | Potency | activity change, negative = inhibition
1 | CCN(CC)c1ccc(NC(=O)CN2C(=O)CSc3ncccc32)c(C)c1 | inconclusive: 7.38 µM [inhibitor, partial curve, poor fit] | –
2 | O=C(NC1CC1)C1CCN(C2CCN(C(=O)CC3=CCCCC3)CC2)CC1 | inconclusive: 10.4 µM [inhibitor, single point] | –
3 | Cc1cnc(C(=O)OCC(=O)Nc2ccc3c(c2)OCCO3)cn1 | inconclusive: 11.7 µM [inhibitor, partial curve, poor fit] | –
4 | Cc1cc(C)c(C)c(S(=O)(=O)N2CCC(C(=O)N3CCCCCCC3)CC2)c1C | inconclusive: 18.5 µM [inhibitor, single point] | –
5 | Cc1nn(CCc2nn[nH]n2)c2nc(-c3ccc(C4CCCCC4)cc3)cc(C(F)(F)F)c12 | inconclusive: 2.08 µM [inhibitor, partial curve, poor fit] | –
6 | COc1cccc(C2=CC(=O)C[C@H](c3ccc(Cl)cc3)C2)c1 | inconclusive: 1.47 µM [inhibitor, full curve, poor fit] | –
7 | CCc1nn(C(C)C(=O)NCCc2ccccc2)c(=O)c2cc3occc3n12 (configuration not stated) | inconclusive: 11.7 µM [inhibitor, partial curve, poor fit] | –
8 | Cc1ccc(S(=O)(=O)c2c(C)cc(C)nc2N2CCCCC2)cc1 | inconclusive: 6.57 µM [inhibitor, partial curve, poor fit] | –
9 | CCc1ccccc1NC(=S)N(CCN(C)C)Cc1cccs1 | inconclusive: 13.1 µM [inhibitor, partial curve, poor fit] | –
10 | CCOc1cc(S(=O)(=O)NCCc2ccccc2C)c(OCC)cc1-n1cnnn1 | inconclusive: 0.037 µM [inhibitor, full curve, poor fit] | –
11 | COc1ccccc1NCC(=O)N/N=C(\C)c1ccc(Br)s1 | inconclusive: 18.5 µM [inhibitor, single point] | –
12 | O=C(c1ccccc1F)N1C[C@H]2C[C@@H](C1)c1cccc(=O)n1C2 | inconclusive: 18.5 µM [inhibitor, single point] | –
13 | Cc1ccc(-n2nc3c(c2NC(=O)c2ccco2)CS(=O)(=O)C3)c(C)c1 | inconclusive: 4.15 µM [inhibitor, partial curve] | –
14 | Cn1c(=O)oc2cc(S(=O)(=O)NC3CCCCC3)ccc21 | inconclusive: 2.94 µM [inhibitor, single point] | –
15 | O=C(NC1CC2CCC(C1)N2C(=O)NCc1ccccc1)NC12CC3CC(CC(C3)C1)C2 (configuration not stated) | – | inactive: -10.8%
16 | Cc1ccc(C)c(NC(=O)C2C3CCCC2C3c2ccccc2)c1 (configuration not stated) | active: 11.7 µM | –
17 | COC(=O)c1ccc2c(=O)n(CCCCCC(=O)O)c(=S)[nH]c2c1 | inconclusive: 2.94 µM [inhibitor, partial curve, poor fit] | –

One compound at a time (already shown). Values in the order: Potency	activity change, negative = inhibition
Cc1ccc(C)c(NC(=O)C2C3CCCC2C3c2ccccc2)c1 (configuration not stated) is listed with active: 11.7 µM	–
O=C(NC1CC2CCC(C1)N2C(=O)NCc1ccccc1)NC12CC3CC(CC(C3)C1)C2 (configuration not stated) is listed with –	inactive: -10.8%
